Measurements published in paper PMC10331961.
The exact form of at least one protein or probe is not confirmed. Results from cells or extracts need not show a direct contact.

By UniProt entry, the sequences of proteins in these tests, tags left out. Residues count along the entry.
UniProt P42224, 1-746 E169A: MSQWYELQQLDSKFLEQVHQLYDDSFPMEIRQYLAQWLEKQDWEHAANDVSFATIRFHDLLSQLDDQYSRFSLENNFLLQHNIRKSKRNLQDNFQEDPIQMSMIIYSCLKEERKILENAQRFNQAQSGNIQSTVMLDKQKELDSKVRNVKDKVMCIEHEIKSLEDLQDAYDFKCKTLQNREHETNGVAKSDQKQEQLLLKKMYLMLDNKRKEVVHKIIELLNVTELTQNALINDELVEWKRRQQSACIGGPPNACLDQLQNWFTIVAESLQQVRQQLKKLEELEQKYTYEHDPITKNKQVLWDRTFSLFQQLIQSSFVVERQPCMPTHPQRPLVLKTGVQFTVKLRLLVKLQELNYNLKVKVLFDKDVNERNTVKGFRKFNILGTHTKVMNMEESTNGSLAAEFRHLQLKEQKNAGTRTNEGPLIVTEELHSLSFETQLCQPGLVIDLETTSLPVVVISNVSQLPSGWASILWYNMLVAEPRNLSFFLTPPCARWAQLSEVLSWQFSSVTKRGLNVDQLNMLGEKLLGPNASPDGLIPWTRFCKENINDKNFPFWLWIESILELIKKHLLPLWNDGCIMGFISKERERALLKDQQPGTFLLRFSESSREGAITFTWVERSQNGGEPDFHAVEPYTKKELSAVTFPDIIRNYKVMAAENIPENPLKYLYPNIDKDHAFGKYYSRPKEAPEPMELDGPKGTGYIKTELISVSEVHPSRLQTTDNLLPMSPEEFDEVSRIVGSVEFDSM
UniProt P42224, 1-746: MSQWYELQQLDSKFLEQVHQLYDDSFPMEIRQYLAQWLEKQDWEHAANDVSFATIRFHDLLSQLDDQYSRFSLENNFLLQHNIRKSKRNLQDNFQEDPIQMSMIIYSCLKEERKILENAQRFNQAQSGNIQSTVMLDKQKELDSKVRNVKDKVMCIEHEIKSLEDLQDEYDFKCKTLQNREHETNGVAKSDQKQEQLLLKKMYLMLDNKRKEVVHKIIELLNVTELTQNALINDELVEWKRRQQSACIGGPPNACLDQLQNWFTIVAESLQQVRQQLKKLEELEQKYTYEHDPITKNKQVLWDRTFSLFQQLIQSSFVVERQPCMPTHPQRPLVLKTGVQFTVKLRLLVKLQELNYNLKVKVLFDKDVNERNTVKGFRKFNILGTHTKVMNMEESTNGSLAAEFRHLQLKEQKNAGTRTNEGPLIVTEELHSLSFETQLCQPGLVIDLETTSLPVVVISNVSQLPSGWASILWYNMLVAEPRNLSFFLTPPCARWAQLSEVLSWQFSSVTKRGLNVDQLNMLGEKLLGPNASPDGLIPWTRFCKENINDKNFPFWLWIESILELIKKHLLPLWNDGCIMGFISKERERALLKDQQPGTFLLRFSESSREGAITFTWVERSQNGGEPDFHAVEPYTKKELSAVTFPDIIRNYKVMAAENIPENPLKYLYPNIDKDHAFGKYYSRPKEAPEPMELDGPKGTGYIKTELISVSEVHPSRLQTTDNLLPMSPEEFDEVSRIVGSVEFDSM

Legend:
Test in all cases: EMSA
[1] = target: STAT1alpha E169A-GFP (human) (UniProt P42224); conditions: IFNg 45 min, more complex than WT, also after staurosporine; 4.5 ul whole cell extract + 8.5 ul reaction buffer (composition not given) with 1 ng 33P probe, 5 min on ice (30 min before competition); 4.8% 29:1 acrylamide gel, 4 C; protein in a lysate after overexpression; residues 1-746; protein details: C-terminal GFP (pEGFP-N1); label: 33P (Klenow end-fill)
[2] = target: STAT1alpha WT untagged (human) (UniProt P42224); conditions: IFNg 45 min, less complex than E169A; 4.5 ul whole cell extract + 8.5 ul reaction buffer (composition not given) with 1 ng 33P probe, 5 min on ice (30 min before competition); 4.8% 29:1 acrylamide gel, 4 C; protein in a lysate after overexpression; residues 1-746; label: 33P (Klenow end-fill)
[3] = target: STAT1alpha WT-GFP (human) (UniProt P42224); conditions: IFNg 45 min, less complex than E169A; 4.5 ul whole cell extract + 8.5 ul reaction buffer (composition not given) with 1 ng 33P probe, 5 min on ice (30 min before competition); 4.8% 29:1 acrylamide gel, 4 C; protein in a lysate after overexpression; residues 1-746; protein details: C-terminal GFP (pEGFP-N1); label: 33P (Klenow end-fill)
[4] = target: STAT1alpha E169A untagged (human) (UniProt P42224); conditions: IFNg 45 min, more complex than WT; 4.5 ul whole cell extract + 8.5 ul reaction buffer (composition not given) with 1 ng 33P probe, 5 min on ice (30 min before competition); 4.8% 29:1 acrylamide gel, 4 C; protein in a lysate after overexpression; residues 1-746; label: 33P (Klenow end-fill)

Measured: binding result

CGACATTTCCCGTAAATCTG (double strand) [M67]
binds: [1] | [2] | [3] | [4]
